US10961245B2, “Substituted heterocycle fused gamma-carbolines for treatment of central nervous system disorders” (INTRA-CELLULAR THERAPIES, INC., priority 2016, dated 2021)
At least one read-out could not be matched to a standard name with certainty.

The chains behind the UniProt entries cited, without tags or fusion partners. Residues count along the entry.
UniProt P14416, 1-414 isoform P14416-2: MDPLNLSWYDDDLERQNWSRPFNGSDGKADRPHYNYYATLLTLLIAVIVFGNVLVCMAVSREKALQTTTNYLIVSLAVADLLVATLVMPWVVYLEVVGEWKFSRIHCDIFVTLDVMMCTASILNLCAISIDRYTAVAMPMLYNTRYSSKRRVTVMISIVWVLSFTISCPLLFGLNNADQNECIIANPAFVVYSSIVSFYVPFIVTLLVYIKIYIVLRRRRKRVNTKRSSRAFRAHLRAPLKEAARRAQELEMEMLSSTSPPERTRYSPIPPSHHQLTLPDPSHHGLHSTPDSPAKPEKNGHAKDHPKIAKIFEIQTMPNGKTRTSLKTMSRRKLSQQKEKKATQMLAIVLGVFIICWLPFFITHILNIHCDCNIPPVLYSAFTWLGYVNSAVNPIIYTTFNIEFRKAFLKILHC

Target: D2 (Homo sapiens, UniProt P14416)
Assay: Receptor binding D2
Details: maximum inhibition in words

Question: How did the “Ki (nM) or maximum inhibition” value turn out when O=C1CN2c3c(cccc3[C@@H]3CN(CCCC(=O)c4ccncc4)CC[C@@H]32)N1 [Formula II-C] was run?
Answer: No inhibition
